The values that follow come from patent publication US20190133930A1, “Methods of Anesthetizing Nerve Tissue in the Trigeminal Nerve Pathway and Medical Uses Thereof” (Apollonia, LLC, priority 2014, published 2019).

Counter-ions that a name gives are not always drawn.

A short description of data set [1]: MatTek EpiAirway cell monolayer permeability of local anesthetics after excipient pre-treatment. Particulars: human, pH 6, EpiAirway, 10 mM test article, donor pH 6.0, 37° C., 0.5 hr; excipient: none. The format is in vitro ADME.
Experiment in data set [2]: as above
The format is in vitro ADME. The settings on record: human, pH 6, EpiAirway, 10 mM test article, donor pH 6.0, 37° C., 0.5 hr. As to the method: Introduction: Three studies were performed to test the ability of various exemplary mucosal absorption enhancers (a fatty acid, a bile salt, a surfactant, and a phospholipid) to promote transport of three exemplary local anesthetic agents (bupivacaine, lidocaine, and tetracaine) across a 3-dimensional MatTek EpiAirway™ cell monolayer. The EpiAirway™ cell line is derived from normal human respiratory airway cells and models the mucosal tissue in the nasal cavity's respiratory airway, the main site of drug absorption following intranasal administration. The MatTek EpiAirway™ cell line has been well correlated to in vivo human intranasal drug absorption (see, e.g., Chemuturi et al., J. Pharm. Sci. 94: 1976-1985, 2005). It is a well-accepted in vitro model of human nasal drug absorption and is an ideal model for intranasal absorption of local anesthetic agents.
EpiAirway™ tissues were treated with the excipients (0.5% sodium caprate, 0.5% sodium deoxycholate, 0.5% polyoxyethylene 9 lauryl ether, and 0.5% lysophosphatidylcholine) for 20 min. The excipients were then washed off the EpiAirway™ tissues. Test articles (10 mM Bupivacaine HCl, 10 mM Lidocaine HCl, and 10 mM Tetracaine HCl) in transport buffer (1.98 g/L glucose in 10 mM HEPES, 1× Hank's Balanced Salt Solution without Mg^2+ and without Ca^2+, pH 6.0) were added to triplicate apical donor wells. The receiver wells contained standard transport buffer. The fluorescent marker Lucifer Yellow and atenolol (10 μM) were also included to monitor monolayer integrity at the end of the assay. The plates were incubated at 37° C. for 30 min. An aliquot of the receiver chamber was removed for analysis.
At the end of the incubation period, the donor plate was removed from the receiver plate. The donor and receiver samples were analyzed and quantified by LC-MS/MS (propranolol used as internal LC-MS standard).
To verify the monolayer integrity, aliquots of the cell buffers were analyzed by fluorescence and LC-MS/MS to determine the transport of the impermeable dye Lucifer Yellow and atenolol, respectively.
Data are expressed as permeability (Papp): Papp=(dQ/dt)/C0A
Where dQ/dt is the rate of permeation, C0 is the initial concentration of test agent, and A is the area of the monolayer.
For mass spectroscopy method development, the signal was optimized for each compound by electrospray ionization (ESI) in positive ionization mode. […]
Samples were analyzed by LC/MS/MS using an Agilent 6410 mass spectrometer coupled with an Agilent 1200 HPLC and a CTC PAL chilled autosampler, all controlled by MassHunter software (Agilent). After separation on a C18 reverse phase HPLC column (Agilent Zorbax StableBond 3.5 um, 2.1×30 mm) using an acetonitrile-water gradient, peaks were analyzed by mass spectrometry using ESI ionization in MRM mode. […]

Take `CCN(CC)CC(=O)Nc1c(C)cccc1C` [Lidocaine, Lidocaine HCl]: the Papp A→B (as a rule, how fast a substance crosses the layer from the apical side) at 30 min, 10 mM was found to be 8.6 ×10⁻⁶ cm/s in data set [1]; 60.8 ×10⁻⁶ cm/s in data set [2] (20 min pre-treatment with 0.5% Lysophosphatidylcholine); 71.9 ×10⁻⁶ cm/s in data set [2] (20 min pre-treatment with 0.5% Polyoxyethylene 9 Lauryl Ether); 28.9 ×10⁻⁶ cm/s in data set [2] (20 min pre-treatment with 0.5% Sodium Caprate); 96.3 ×10⁻⁶ cm/s in data set [2] (20 min pre-treatment with 0.5% Sodium Deoxycholate).
